Residue numbers refer to the chain shown, from its start. These are yes or no findings as the source states them, for the method shown. Some binding calls cover weakened binding; strength is not graded here.
T1: mouse CD47, on CHOK1/mCD47 cells (mouse) (UniProt Q61735)
T1 sequence (looked up): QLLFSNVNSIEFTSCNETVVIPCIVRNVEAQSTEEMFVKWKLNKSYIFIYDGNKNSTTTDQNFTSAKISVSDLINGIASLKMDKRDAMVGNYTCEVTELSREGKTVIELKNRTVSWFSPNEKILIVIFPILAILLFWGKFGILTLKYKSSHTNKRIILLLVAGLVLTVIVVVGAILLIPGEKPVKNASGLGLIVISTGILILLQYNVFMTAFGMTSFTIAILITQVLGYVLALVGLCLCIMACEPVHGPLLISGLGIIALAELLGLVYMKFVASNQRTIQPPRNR

By UniProt entry, the sequences of proteins in these tests, tags left out. Residues count along the entry.
UniProt Q08722, residues 19-139: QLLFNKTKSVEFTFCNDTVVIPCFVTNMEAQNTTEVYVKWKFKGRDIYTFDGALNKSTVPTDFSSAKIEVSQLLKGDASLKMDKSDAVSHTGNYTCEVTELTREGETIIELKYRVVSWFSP

B1: c29A03NA (antibody, V domains shown)
VH: EVQLQQSGAELVKPGASVKMSCKASGYTFTNYWITWVKQRPGQGLEWIGDIYPVSGGTDYNEKFKTRATLTVDTSSSTAYMHLSSLTSEDSAVYYCARKGRGGVDYWGQGTTLTVSS
VL: DILMTQTPLSLPVSLGDQASISCRSSQSIVHSNANTYLEWYLQKPGQSPKLLIYKVSNRFSGVPDRFSGSGSGTDFTLKISRVEAEDLGVYFCSQSTHVPYTFGGGTKLEIK
B2: c4D10B11 (antibody, V domains shown)
VH: QVQLQQSGPELVKPGASVKISCKASGYSFTSYYIHWVKQRPGQGLEWIGWIYPGSGNTKYNEKFKGKATLTADTSSSTADMQLSSLTSEDSAVYYCARRGDWYFDVWGTGTTVTVSS
VL: DIVMSQSPSSLVVSVGEKVTMNCKSSQSLLFSGNQKSSLAWYQQKPGQSPKLLIYWASTRESGVPDRFTGSGSGTDFTLIISTVKAEDLAVYSCQQYYSYPLTFGAGTKLELK
B3: c25E3B5 (antibody, V domains shown)
VH: QVQLQQPGTALVRPGSSVKLSCKASGYTFTSYWMHWVRQRPIKGLEWIGNIDPSDSETHYNQRFKDKVTLTVDKSSNTAYMQLSSLTSEDSAVYYCARWKYHGIGAMDYWGQGTSVTVSS
VL: DVQITQSPSYLAASPGETVTISCRTNRNISKFLAWYQEKPGKTNKLLIYSGSTLHSGIPSRFSGSGSGTDFTLTISRLEPEDFAMYYCQQHNEYPWSFGGGTKLEIK
B4: c20H4G5 (antibody, V domains shown)
VH: QVQLQQPGAELVRPGSSVRLSCVTSGYTFTSHWMHWVKQGPIKGLEWIGNIDPSDSETHYNQKFKDKATLTVDKSSSTAYMQLSRLTSDDSAVYYCARWRHLGIGAMDYWGQGTSVIVSS
VL: B3 VL with V19I, S22N, T25A, N26S, R27K, E38A, T43S, K45N, H55Q, S97T
B5: c51E2F11 (antibody, V domains shown)
VH: EVQLQQSGAELVKPGASVKLSCTASGFNIKDHYIHWMNQRTEQGLEWIGRIDPDDGETRYAPKFRGKATLTADTSSNTAYLQFSSLTSEDTAVYHCTRATTITRDWYFDVWGTGTTVTVSS
VL: DIVMTQSQKFMSTSVGDRVSITCKASQNVRTSVAWYQQKPGQSPKALIYLASNRHTGIPDRFTGSGSGTDFTLTIRNVQSEDLADYFCLQHWDYPLTFGAGTKLELK
B6: c95E2D10 (antibody, V domains shown)
VH: QIQLQQSGPELVKPGASMKISCKASGYPFTDYYIHWVKQKPGQGLEWIGWIYPGSGNNKYNEKFKGKATLTVDTSPSTVYMQLSSLTSEDTAVYFCARRAGNYFDYWGQGTTLTVSS
VL: NIVMTQSPKSMSRSVGERVTLSCRASENVRTYVFWYQQKPGLSPKLLIYGASNRYIGVPDRFTGSGSATDFTLTISSVQAEDLADYHCGQSYSYPLTFGAGTKLELK

Target: biotin-labeled CD47 extracellular domain protein (CD47-ECD) (UniProt Q08722)
Test: blocking ELISA: SIRPα-hFc coated, biotin-labeled CD47-ECD added with the antibody, OD450; blocked ligand SIRPα-hFc

B1 was tested. Which binding did it give?
Its binding is “binds”.

B2 was tested. Which binding did it give?
The binding was “binds”.

How did the binding turn out when B3 was run?
The binding was “binds”.

How did the binding turn out when B4 was run?
Its binding is “binds”.

Which binding does the source give for B5 here?
Its binding is “binds”.

B6 was tested. Which binding did it give?
Its binding is “binds”.

Target: T1, mouse CD47, on CHOK1/mCD47 cells (mouse)
Test: flow cytometry (FACS) on CHOK1-mCD47 cells, mean fluorescence intensity

With B1 as the binder, how does the binding read?
Its binding is “binds”.

Source: patent US20220017615A1
